Source: US20210239689A1, “COMPETITIVE SMALL MOLECULE DETECTION ASSAYS USING ARRAYED IMAGING REFLECTOMETRY” (ADARZA BIOSYSTEMS, INC., priority 2015, published 2021)
Values joined by “and” are separate entries in the source; they are usually repeats but may differ in a detail not shown here. Identical values can stand only once.

Key:
Type in all cases: binding
[1] = test system: Antibodies against acrolein (GTX15138); experiment: AIR toxicant array, competitive immunoassay (three-plex), acrolein
[2] = test system: Antibodies against benzo[a]pyrene (GTX20768); experiment: AIR toxicant array, competitive immunoassay (three-plex), benzo[a]pyrene; conditions: three-plex AIR assay, competitive inhibition, 0.5% BSA in PBS-ET, antibody 6.7 nanomolar
[3] = test system: Anti-bisphenol A (AS132735); experiment: AIR toxicant array, competitive immunoassay (three-plex), bisphenol A; conditions: three-plex AIR assay, competitive inhibition, 0.5% BSA in PBS-ET, antibody 6.7 nanomolar
anti-bisphenol A = experiment: Competitive ELISA of anti bisphenol A (plate adsorbed with KLH-bisphenol A, free bisphenol A as competitor)
[4] = three-plex AIR assay, competitive inhibition, 0.5% BSA in PBS-ET, antibody 6.7 nanomolar

C=CC=O [Acrolein, acrolein]
AIR array response to analyte doped in pooled normal human serum (PNHS) ([1]; competitive inhibition mode, 10 and 50 micromolar, FIG. 8): concentration-dependent responses
response in competitive inhibition format versus competitive dissociation format ([1]; equivalent concentrations, FIG. 6): substantially greater response
LLOD [1, 4]: 16 nM
LLOQ [1, 4]: 16 nM

c1ccc2c(c1)cc1ccc3cccc4ccc2c1c34 [Benzo[a]pyrene, benzo[a]pyrene]
LLOD [2]: 16 nM
LLOQ [2]: 16 nM

CC(C)(c1ccc(O)cc1)c1ccc(O)cc1 [Bisphenol A, bisphenol A]
LLOD [3]: 80 nM
LLOQ [3]: 80 nM
lower limit of detection (anti-bisphenol A): 0.64 ng/mL and 2.8 nM
